{"source": "PubChem BioAssay AID540256", "about": "(National Center for Advancing Translational Sciences (NCATS), 2011)", "note": "Screen size: about 300,000 compounds; about 3,700 (1.2%) were called active. The inconclusive results got no clear call from the source; some entries with a clear call stand among them for comparison. Calls follow the shape of the full dose curve; tested in HEK293 cells. A potency beside an inconclusive call is a rough fit, not a confirmed value. % is scaled to controls: 0 for no effect and ±100 for the full control effect; potency is read from the fitted curve at half-maximal effect."}
{"assay": "qHTS for Inhibitors of binding or entry into cells for Lassa Virus; also: nearly all actives have a fitted effect of over 50% in size", "settings": "Lassa virus pseudotype entry inhibition, cell reporter; activity change, negative = inhibition: at 37.9 µM (top of the series) unless noted"}
{"compound": "O=C(Nc1cccc(-c2nc3ccccc3o2)c1)c1cccc2c(Cl)cccc12", "activity change, negative = inhibition": "inactive: -15.4% [at 46.1 µM]"}
{"compound": "O=C(NC(=S)NNC(=O)c1ccccc1F)c1cccnc1", "activity change, negative = inhibition": "inactive: -25.5%"}
{"compound": "O=S(=O)(NCC(O)c1ccccc1)c1ccc(-c2ccccn2)s1", "note": "(configuration not stated)", "Potency": "inconclusive: 7.08 µM [inhibitor, partial curve]"}
{"compound": "Cc1cc(C2C(=O)CC(=O)CC2c2ccccc2)on1", "note": "(configuration not stated)", "activity change, negative = inhibition": "inactive: -4.74%"}
{"compound": "COCCNC(=O)c1[nH]c2cc(C)ccc2c1Sc1ccc(Cl)cc1", "activity change, negative = inhibition": "inactive: 7.37% [at 46.1 µM]"}
{"compound": "C=C1CCc2c([nH]c3ccc(OCC(C)C)cc23)C1=O", "Potency": "inconclusive: 17.8 µM [inhibitor, partial curve, poor fit]"}
{"compound": "Cn1c(SCc2c(F)cccc2Cl)nnc1-c1cccs1", "Potency": "inconclusive: 9.2 µM [activator, partial curve]"}
{"compound": "COc1ccc(N2CCN(C(=O)CSCc3ccc(C)cc3)CC2)cc1", "Potency": "inconclusive: 6.31 µM [inhibitor, partial curve, poor fit]"}
{"compound": "CC(Sc1n[nH]c(-c2ccccc2)n1)C(=O)c1c(N)n(C)c(=O)n(C)c1=O", "note": "(configuration not stated)", "Potency": "inconclusive: 0.251 µM [inhibitor, full curve]"}
{"compound": "S=c1[nH]c(-c2ccccc2)cn1/N=C/c1ccccc1Br", "activity change, negative = inhibition": "inactive: 3.44%"}
{"compound": "COc1ccc(NC(=O)c2cc3c(C)nn(-c4ccccc4)c3s2)c(OC)c1", "activity change, negative = inhibition": "inactive: -8.48% [at 46.1 µM]"}
{"compound": "CC12CCC(C(=O)Nc3cccc(Cl)c3)(C(Br)C1=O)C2(C)C", "note": "(configuration not stated)", "Potency": "inconclusive: 1.41 µM [inhibitor, full curve]"}
{"compound": "S=C1NCN(C2CCCCC2)CN1CCc1ccccc1", "Potency": "inconclusive: 35.5 µM [inhibitor, partial curve, poor fit]"}
{"compound": "CC(=O)Nc1cccc(-c2csc(NCc3ccco3)n2)c1", "activity change, negative = inhibition": "inactive: -4.35%"}
{"compound": "O=C1C2CCCN2C(c2cccs2)N1c1ccc(Cl)cc1", "note": "(configuration not stated)", "Potency": "active: 7.3 µM"}
{"compound": "Cc1ccc2nc(COc3cccc(NC(=O)COc4ccc(F)cc4)c3)cc(=O)n2c1", "Potency": "inconclusive: 0.562 µM [activator, full curve, poor fit]"}
{"compound": "COc1cc(/C=N/NC(=O)CCc2ccccc2)ccc1O", "Potency": "active: 2.82 µM"}
{"compound": "Nc1ncc([N+](=O)[O-])c(N2CCCCCC2)n1", "activity change, negative = inhibition": "inactive: -2.95% [at 46.1 µM]"}
{"compound": "O=c1c(Cl)c(N/N=C/c2ccc(Br)cc2)cnn1-c1ccccc1", "Potency": "inconclusive: 35.5 µM [inhibitor, single point]"}
{"compound": "Cc1cccc(COc2ccccc2C(=O)OCC(=O)N(C)c2c(N)n(Cc3ccccc3)c(=O)[nH]c2=O)c1", "Potency": "inconclusive: 2.24 µM [inhibitor, partial curve, poor fit]"}
{"compound": "Clc1ccc(C=NN2CCCCCC2)cc1", "Potency": "inconclusive: 17.8 µM [activator, single point]"}
{"compound": "Cc1cc(C)n2nc(C(=O)N/N=C/c3c4ccccc4cc4ccccc34)nc2n1", "Potency": "inconclusive: 17.8 µM [inhibitor, single point]"}
{"compound": "CC1(C)CC=CC(COC(=O)c2ccccc2C(=O)O)C1", "note": "(configuration not stated)", "activity change, negative = inhibition": "inactive: 20% [at 46.1 µM]"}
{"compound": "COc1ccc(OCC(O)CNS(=O)(=O)c2ccc(NC(C)=O)cc2)cc1", "note": "(configuration not stated)", "Potency": "inconclusive: 0.282 µM [inhibitor, full curve, poor fit]"}
{"compound": "Cc1ccc(S(=O)(=O)CCc2nnc(NC(=O)CCl)s2)cc1C", "Potency": "inconclusive: 35.5 µM [inhibitor, single point]"}
{"compound": "COc1ccc(NS(=O)(=O)c2ccc(C)c(C(=O)N(C)CCc3ccc(OC)c(OC)c3)c2)cc1", "Potency": "inconclusive: 35.5 µM [inhibitor, single point]"}
{"compound": "C#C[C@]1(O)CC[C@H]2[C@@H]3CCC4=CC(=O)CC[C@]4(C)[C@H]3CC[C@@]21C", "activity change, negative = inhibition": "inactive: 2.08%"}
{"compound": "Clc1ccc(/C=N/NC2=Nc3cccc4cccc2c34)cc1", "Potency": "inconclusive: 35.5 µM [inhibitor, single point]"}
{"compound": "COc1ccc(C2CC(c3ccccc3)=NN2c2ccc(C(N)=O)cc2)cc1", "note": "(configuration not stated)", "Potency": "inconclusive: 35.5 µM [inhibitor, single point]"}
{"compound": "CC1=CC(c2ccccc2)=Nc2ccc(C)cc2N1", "Potency": "inconclusive: 29.1 µM [inhibitor, single point]"}
{"compound": "COc1cc(NC(=O)C(Cc2ccccc2)n2cccc2)cc(OC)c1", "note": "(configuration not stated)", "Potency": "inconclusive: 25.9 µM [inhibitor, partial curve]"}
{"compound": "O=c1c2oc3ccccc3c2n(Cc2cccc(F)c2)c(=O)n1Cc1ccc2c(c1)OCO2", "activity change, negative = inhibition": "inactive: -0.95% [at 46.1 µM]"}
{"compound": "Cc1ccccc1CNC(=O)C(=O)NCC(c1cccs1)S(=O)(=O)c1cccs1", "note": "(configuration not stated)", "Potency": "inconclusive: 35.5 µM [inhibitor, single point]"}
{"compound": "CCCCNc1cc(C)nc(NCc2ccccc2)n1", "Potency": "active: 11.2 µM"}
{"compound": "Cc1cccc(NC(=S)Nc2ccc(Oc3ccccc3)cc2)n1", "activity change, negative = inhibition": "inactive: -17.8%"}
{"compound": "O=C(CNCc1ccccc1Cl)Nc1ccc(C(=O)N2CCCCC2)cc1", "activity change, negative = inhibition": "inactive: 4.17%"}
{"compound": "CCN(Cc1ccccc1)c1ccc(/C=N/N=C(N)N)cc1", "Potency": "active: 8.2 µM"}
{"compound": "CCn1nc(C)cc1C(=O)N1CCCC(C(=O)c2cccc(OC)c2)C1", "note": "(configuration not stated)", "Potency": "inconclusive: 11.2 µM [inhibitor, partial curve]"}
{"compound": "CCC1Oc2ccccc2N(Cc2ccccc2C)C1=O", "note": "(configuration not stated)", "Potency": "inconclusive: 23.1 µM [activator, partial curve, poor fit]"}
{"compound": "CCOc1ccc(-c2cc(C(=O)NCCc3ccc(OC)c(OC)c3)[nH]n2)cc1", "activity change, negative = inhibition": "inactive: -17.6% [at 46.1 µM]"}
{"compound": "Cc1cccc2sc(N(CCN(C)C)C(=O)/C=C/c3cccs3)nc12", "Potency": "inconclusive: 11.2 µM [inhibitor, single point]"}
{"compound": "CC(C)Cn1c(-c2ccco2)csc1=Nc1cccnc1", "activity change, negative = inhibition": "inactive: 11.6%"}
{"compound": "S=c1[nH]nc(Cc2ccc(Br)cc2)n1/N=C/c1ccc(Cl)cc1", "Potency": "inconclusive: 0.501 µM [inhibitor, full curve, poor fit]"}
{"compound": "CCC1(c2ccc(F)cc2)NC(=O)N(CC(=O)Nc2ccccc2Cl)C1=O", "note": "(configuration not stated)", "Potency": "inconclusive: 4.47 µM [inhibitor, partial curve, poor fit]"}
{"compound": "O=C1NC(=O)N(c2ccccc2)C(=O)/C1=C\\C=C\\c1ccccc1", "activity change, negative = inhibition": "inactive: -1.92%"}
{"compound": "O=C(CCS(=O)(=O)Cc1ccccc1)NC1CCCCC1", "activity change, negative = inhibition": "inactive: 6.59%"}
{"compound": "CC(C)(C)c1ccc(S(=O)(=O)N2CCC(CO)(CC3CCCCO3)CC2)cc1", "note": "(configuration not stated)", "Potency": "inconclusive: 1.26 µM [inhibitor, full curve, poor fit]"}
